Laboratory results from patent publication US12435083B2, “Cyclopropyl-(hetero)aryl-substituted ethylsulphonyl-pyridine derivatives” (BOEHRINGER INGELHEIM VETMEDICA GMBH, priority 2021, dated 2025).
Some results were stated once for a whole list of compounds, not compound by compound. At least one structure is not confirmed: it was looked up by name or label, or the drawing left a doubt.

Columns and labels:
[1] = test system: Aedes aegypti L1 larvae; experiment: Activity against larvae of Aedes aegypti (L1 larvae, 384-well, image-based mortality); conditions: 48 h at 27° C., read-out: EC50 (percentage of mortality, A. aegypti L1 larvae)
Experimental: Example 3: Screening Method to Test Activity of Compounds of Formula (I) Against Larvae of Aedes aegypti
Eight A. aegypti L1 larvae in a total volume of 64 μL water were added to 384-well microplates containing compounds formulated in 100% DMSO. The plates were incubated for 48 h at 27° C. Individual well images were acquired and analyzed using a pipeline to quantitatively assess the amount of larvae biomass accumulating at the bottom of the well. The efficacy of a compound at a given dose is expressed as “percentage of mortality” and determined by comparison to average biomass descriptors of positive and negative control wells containing 1.0 μM Fipronil or DMSO only, respectively. Dose response assay were conducted to determine an EC50 value.

[2] = test system: Spodoptera litura 2nd-instar larvae; experiment: Insecticidal test on Spodoptera litura (cabbage leaf dip); conditions: 500 ppm, 8 days after inoculation
Experimental: Example 11: Insecticidal Test on Spodoptera litura
The compounds of formula (I) of the present invention or salts thereof were separately dispersed in water and diluted to 500 ppm. Cabbage leaves were dipped in the dispersion for about 30 seconds. After air dried, the leaves were placed in a plastic Petri dish with a diameter of 9 cm and inoculated with ten 2nd-instar larvae of Spodoptera litura, after which the dish was closed and then allowed to stand in a room at 25° C. 8 days after the inoculation, the numbers of the dead and alive insects were counted. The corrected mortality rate was calculated according to the following formula and the insecticidal activity was evaluated according to the following criteria. Corrected mortality rate (%)=100×(Survival rate in an untreated plot−Survival rate in a treated plot)/Survival rate in an untreated plot • A: the corrected mortality rate is 100% • B: the corrected mortality rate is 90 to 99% • C: the corrected mortality rate is 80 to 89% • D: the corrected mortality rate is 50 to 79%

[3] = test system: Plutella xylostella; experiment: Insecticidal test on Plutella xylostella (Chinese cabbage seedling dip); conditions: 500 ppm, 6 days after dip treatment
Experimental: Example 12: Insecticidal Test on Plutella xylostella
The compounds of formula (I) of the present invention or salts thereof were separately dispersed in water and diluted to 500 ppm. Ten adults of Plutella xylostella were released onto Chinese cabbage seedlings and allowed to lay eggs thereon. 2 days after the release of the adults, the seedling was dipped in the dispersion for about 30 seconds. After air dried, the seedling was kept in a room at 25° C. 6 days after the dip treatment, the numbers of the dead and alive insects were counted. The corrected mortality rate was calculated according to the following formula and the insecticidal activity was evaluated according to the following criteria. Corrected mortality rate (%)=100×(Survival rate in an untreated plot−Survival rate in a treated plot)/Survival rate in an untreated plot • A: the corrected mortality rate is 100% • B: the corrected mortality rate is 90 to 99% • C: the corrected mortality rate is 80 to 89% • D: the corrected mortality rate is 50 to 79%

[4] = test system: Myzus persicae; experiment: Insecticidal test on Myzus persicae (foliar application on potted Chinese cabbage); conditions: 500 ppm, 6 days after application
Text: Example 14: Insecticidal Test on Myzus persicae
The compounds of formula (I) of the present invention or salts thereof were separately dispersed in water and diluted to 500 ppm. Chinese cabbage plants were planted in plastic pots (diameter: 8 cm, height: 8 cm). Aphids (Myzus persicae) were propagated on the plants and then the number of surviving aphids was counted. The dispersion was applied to the foliage of the potted plants. After the plants were air dried, these were kept in a greenhouse. 6 days after the application, the number of the alive insects was counted on the plants. The control rate was calculated according to the following formula and the control efficacy was evaluated according to the following criteria. Control rate (%)=100−{(T×Ca)/(Ta×C)}×100 • Ta: the number of alive insects before the foliar application in a treated plot • T: the number of alive insects after the foliar application in a treated plot • Ca: the number of alive insects before the foliar application in an untreated plot • C: the number of alive insects after the foliar application in an untreated plot • A: the control rate is 100% • B: the control rate is 90 to 99% • C: the control rate is 80 to 89% • D: the control rate is 50 to 79%

[5] = test system: Laodelphax striatellus 3rd-instar nymphs; experiment: Insecticidal test on Laodelphax striatellus (rice seedling dip); conditions: 500 ppm, 8 days after inoculation
Experimental: Example 13: Insecticidal Test on Laodelphax striatellus
The compounds of formula (I) of the present invention or salts thereof were separately dispersed in water and diluted to 500 ppm. Rice plant seedlings were dipped in the dispersion for about 30 seconds. After air dried, the seedlings were put into a separate glass test tube and inoculated with ten 3rd-instar nymphs of Laodelphax striatellus and then the glass test tube was kept in a room at 25° C. 8 days after the inoculation, the numbers of the dead and alive insects were counted. The corrected mortality rate was calculated according to the following formula and the insecticidal activity was evaluated according to the following criteria. Corrected mortality rate (%)=100×(Survival rate in an untreated plot−Survival rate in a treated plot)/Survival rate in an untreated plot • A: the corrected mortality rate is 100% • B: the corrected mortality rate is 90 to 99% • C: the corrected mortality rate is 80 to 89% • D: the corrected mortality rate is 50 to 79%

## CCS(=O)(=O)c1cc(-c2ccc(C3CC3)cc2)cnc1-c1nc2cc(C(F)(F)C(F)(F)F)nnc2n1C [compound 17]
[1]
  EC50: < 40 nM
[2]
  activity level (corrected mortality rate), Spodoptera litura: A (the corrected mortality rate is 100%)
[3]
  activity level (corrected mortality rate), Plutella xylostella: A (the corrected mortality rate is 100%)
[4]
  control efficacy level (control rate), Myzus persicae: A (the control rate is 100%)

## CCS(=O)(=O)c1cc(-c2ccc(C3(C(F)(F)F)CC3)cc2)cnc1-c1nc2cc(C(F)(F)C(F)(F)F)nnc2n1C [compound 20]
[1]
  EC50: < 40 nM
[2]
  activity level (corrected mortality rate), Spodoptera litura: A (the corrected mortality rate is 100%)
[3]
  activity level (corrected mortality rate), Plutella xylostella: A (the corrected mortality rate is 100%)
[5]
  activity level (corrected mortality rate), Laodelphax striatellus: A (the corrected mortality rate is 100%)
[4]
  control efficacy level (control rate), Myzus persicae: A (the control rate is 100%)

## CCS(=O)(=O)c1cc(-c2ccc(C3CC3)cc2)cnc1-c1cn2cnc(SC(F)(F)F)cc2n1 [compound 32]
[1]
  EC50: < 40 nM
[3]
  activity level (corrected mortality rate), Plutella xylostella: A (the corrected mortality rate is 100%)
[4]
  control efficacy level (control rate), Myzus persicae: A (the control rate is 100%)

## CCS(=O)(=O)c1cc(-c2ccc(C3CC3)cc2)cnc1-c1nc2cc(S(=O)(=O)C(F)(F)F)ccc2o1 [compound 34]
[1]
  EC50: < 40 nM
[3]
  activity level (corrected mortality rate), Plutella xylostella: A (the corrected mortality rate is 100%)

## CCS(=O)(=O)c1cc(-c2ccc(C3CC3)nc2)cnc1-c1nc2cc(C(F)(F)C(F)(F)F)nnc2n1C [compound 38]
[1]
  EC50: < 40 nM
[2]
  activity level (corrected mortality rate), Spodoptera litura: A (the corrected mortality rate is 100%)
[3]
  activity level (corrected mortality rate), Plutella xylostella: A (the corrected mortality rate is 100%)
[5]
  activity level (corrected mortality rate), Laodelphax striatellus: A (the corrected mortality rate is 100%)
[4]
  control efficacy level (control rate), Myzus persicae: A (the control rate is 100%)

## CCS(=O)(=O)c1cc(-c2ccc(C3CC3)cc2)cnc1-c1nc2cc(C(F)(F)C(F)(F)F)cnc2n1C [compound 44]
[1]
  EC50: < 40 nM
[2]
  activity level (corrected mortality rate), Spodoptera litura: A (the corrected mortality rate is 100%)
[3]
  activity level (corrected mortality rate), Plutella xylostella: A (the corrected mortality rate is 100%)
[5]
  activity level (corrected mortality rate), Laodelphax striatellus: A (the corrected mortality rate is 100%)
[4]
  control efficacy level (control rate), Myzus persicae: A (the control rate is 100%)

## CCS(=O)(=O)c1cc(-c2ccc(C3(C(F)(F)F)CC3)cc2)cnc1-c1nc2cc(S(=O)(=O)C(F)(F)F)nnc2n1C [compound 86]
[1]
  EC50: < 40 nM
[2]
  activity level (corrected mortality rate), Spodoptera litura: A (the corrected mortality rate is 100%)
[3]
  activity level (corrected mortality rate), Plutella xylostella: A (the corrected mortality rate is 100%)

## CCS(=O)(=O)c1cc(-c2ccc(C3(C(F)(F)F)CC3)cc2)cnc1-c1nc2cc(C(F)(F)F)n(C3CC3)c(=O)c2n1C [compound 87]
[1]
  EC50: < 40 nM
[2]
  activity level (corrected mortality rate), Spodoptera litura: A (the corrected mortality rate is 100%)
[3]
  activity level (corrected mortality rate), Plutella xylostella: A (the corrected mortality rate is 100%)
[4]
  control efficacy level (control rate), Myzus persicae: A (the control rate is 100%)

## CCS(=O)(=O)c1cc(-c2ncc(C3CC3)cn2)cnc1-c1nc2cc(C(F)(F)C(F)(F)F)nnc2n1C [compound 91]
[1]
  EC50: < 40 nM
[2]
  activity level (corrected mortality rate), Spodoptera litura: A (the corrected mortality rate is 100%)
[3]
  activity level (corrected mortality rate), Plutella xylostella: A (the corrected mortality rate is 100%)

## CCS(=O)(=O)c1cc(-c2cccc(C3CC3)n2)cnc1-c1nc2cc(C(F)(F)C(F)(F)F)ncc2n1C [compound 114]
[1]
  EC50: < 40 nM
[2]
  activity level (corrected mortality rate), Spodoptera litura: A (the corrected mortality rate is 100%)
[3]
  activity level (corrected mortality rate), Plutella xylostella: A (the corrected mortality rate is 100%)

## CCS(=O)(=O)c1cc(-c2ccc(C3CC3)nc2)cnc1-c1nc2cc(C(F)(F)C(F)(F)F)ncc2n1C [compound 117]
[1]
  EC50: < 40 nM
[2]
  activity level (corrected mortality rate), Spodoptera litura: A (the corrected mortality rate is 100%)
[3]
  activity level (corrected mortality rate), Plutella xylostella: A (the corrected mortality rate is 100%)
[5]
  activity level (corrected mortality rate), Laodelphax striatellus: A (the corrected mortality rate is 100%)
[4]
  control efficacy level (control rate), Myzus persicae: A (the control rate is 100%)

## CCS(=O)(=O)c1cc(-c2ccc(C3(C(F)(F)F)CC3)nc2)cnc1-c1nc2cc(C(F)(F)F)ccn2n1 [compound 174]
[2]
  activity level (corrected mortality rate), Spodoptera litura: A (the corrected mortality rate is 100%)
[3]
  activity level (corrected mortality rate), Plutella xylostella: A (the corrected mortality rate is 100%)
[5]
  activity level (corrected mortality rate), Laodelphax striatellus: A (the corrected mortality rate is 100%)
[4]
  control efficacy level (control rate), Myzus persicae: A (the control rate is 100%)

## CCS(=O)(=O)c1cc(-c2ccc(C3CC3)nc2)cnc1-c1nc2cc(SC(F)(F)F)nnc2n1C [compound 186]
[2]
  activity level (corrected mortality rate), Spodoptera litura: A (the corrected mortality rate is 100%)
[3]
  activity level (corrected mortality rate), Plutella xylostella: A (the corrected mortality rate is 100%)
[5]
  activity level (corrected mortality rate), Laodelphax striatellus: A (the corrected mortality rate is 100%)
[4]
  control efficacy level (control rate), Myzus persicae: A (the control rate is 100%)

## CCS(=O)(=O)c1cc(-c2ccc(C3CC3)nc2)cnc1-c1nc2cc([S+]([O-])C(F)(F)F)nnc2n1C (stereo not drawn) [compound 188]
[2]
  activity level (corrected mortality rate), Spodoptera litura: A (the corrected mortality rate is 100%)
[3]
  activity level (corrected mortality rate), Plutella xylostella: A (the corrected mortality rate is 100%)
[5]
  activity level (corrected mortality rate), Laodelphax striatellus: A (the corrected mortality rate is 100%)
[4]
  control efficacy level (control rate), Myzus persicae: A (the control rate is 100%)
